# Results taken from PubChem BioAssay AID624297 (National Center for Advancing Translational Sciences (NCATS), 2012).
# Hit rate of the full screen: of about 340,000 compounds, about 6,200 (1.8%) were called active. Inconclusive results, whose numbers are uncertain, are shown with a selection of clear calls. Calls follow the shape of the dose curve; as a rule, active = well fitted activation curve with a large enough effect; inconclusive = small, poorly fitted or top-dose-only effect; inactive = no such curve, though single readings can be large or run the other way. Potencies beside an inconclusive call are fits to weak or partial responses and may not hold up.
# Test: A quantitative high throughput screen for small molecules that induce DNA re-replication in SW480 colon adenocarcinoma cells. Also: nearly all actives have a fitted effect of over 55% in size. As to re-replication activation: % of control where 0% means no effect.
# Details: Hoechst DNA content imaging, 48 h; re-replication activation: at 46.1 µM (top of the series) unless noted
# How it was run: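 Hoechst fluorescence of nuclei (405 nm excitation, 500-530 nm emission) measured by plate-scanning imager after 48 hr compound exposure at 37 C; re-replication scored as increased number of nuclei with elevated intensity.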
# Potency is read from the fitted curve at half-maximal effect.
SMILES,Potency,re-replication activation
CC(=O)Nc1ccccc1-c1nc2cc(C#N)c(C#N)cc2[nH]c1=O,inactive,
COc1ccc(CC(=O)Oc2ccc(F)cc2)cc1,inactive,
C=CCn1c(=S)[nH]c2scc(-c3ccc(C)o3)c2c1=O,"inconclusive: 29.1 µM [activator, single point]",
O=[N+]([O-])c1cncc([N+](=O)[O-])c1Nc1cccc(O)c1,"inconclusive: 23.1 µM [activator, single point]",
COc1ccccc1N=Nc1ccc(N)c(C)c1,inactive,
COCCCN=C1NN=C(c2cc(C)n(-c3ccccc3F)c2C)CS1,"inconclusive: 29.1 µM [activator, partial curve, poor fit]",
O=C(Cc1ccccc1)Nc1ccc(CN2CCOCC2)cc1,"inconclusive: 25.9 µM [activator, single point]",
O=C(c1ccc(CSc2ccccc2)cc1)N1CCCCCC1,,inconclusive: -699% [activator]
COc1ccc(CCc2cc(OC)c(OC)c(OC)c2)cc1,"inconclusive: 13 µM [activator, partial curve, poor fit]",
COc1cccc(CN(C)CC(O)COC(c2ccccc2)c2ccccc2C)c1 (stereo unspecified),"inconclusive: 20.6 µM [activator, single point]",
O=S(=O)(O)CCCS(=O)(=O)O,inactive,
COc1cc(Nc2c3ccccc3nc3ccccc23)cc(OC)c1OC,active: 23.1 µM,
CCOC(=O)c1cnc(SCC(=O)Nc2ccc(NC(=O)CC)c(OC)c2)nc1N,"inconclusive: 18.4 µM [activator, single point]",
O=C(CCN1CCN(c2ccccc2)CC1)N/N=C/c1ccccc1O,"inconclusive: 3.26 µM [activator, single point]",
CC(C)N(C(C)C)S(=O)(=O)c1ccc(NC(=O)c2cnccn2)cc1,inactive,
CCCCC[n+]1ccn(C2=C([O-])c3ccccc3C(=O)/C2=N\S(=O)(=O)c2ccc(Br)cc2)c1,"inconclusive: 32.6 µM [activator, partial curve, poor fit]",
CCn1cc(C(=O)N[C@@H](C)C(=O)NCCCN2CCOCC2)c(=O)c2cc3c(cc21)OCO3,inactive,
COc1cc2cc(C(c3nnnn3C3CCCC3)N(C)C3CCCCC3)c(=O)[nH]c2cc1OC (stereo unspecified),inactive,
Cc1cc(NC(=O)CSc2nc3c(C)cccc3cc2C#N)no1,"inconclusive: 14.6 µM [activator, partial curve]",
C=CC(=O)Nc1sc2c(c1C(N)=O)CCCC2,"inconclusive: 18.4 µM [activator, single point]",
CCN(CC)CCN(C(=O)/C=C/c1cccs1)c1nc2ccc(C)cc2s1,inactive,
CC(=O)c1cccc(Nc2nc(-c3cccc([N+](=O)[O-])c3)cs2)c1,inactive,
Cc1ccc(S(=O)(=O)N2CCCCC2)cc1NC(=O)Cn1c(=O)cnc2ccccc21,"inconclusive: 29.1 µM [activator, partial curve, poor fit]",
COc1cc(NCCCC(C)N)c2ncccc2c1 (stereo unspecified),"inconclusive: 20.6 µM [activator, single point]",

SMILES,Potency,re-replication activation
O=Cc1cn(-c2ccccc2)nc1-c1ccncc1,"inconclusive: 18.4 µM [activator, partial curve]",
O=C1OC[C@@H]2CCCN2C(=O)[C@H](CC(=O)N(CCO)Cc2ccccc2)C/C=C\C[C@H]1Cc1ccc(F)cc1,inactive,
CC1CC(C)(C)NC(=S)N1CC(=O)N(C)Cc1ccccc1 (stereo unspecified),inactive,
Cc1ccc(-c2csc(-c3c[nH]c4ccccc34)n2)c(C)c1,"inconclusive: 29.1 µM [activator, single point]",
Oc1[nH]c2ccccc2c1N=NC(=S)NCC1CCCO1 (stereo unspecified),inactive,
COc1ccc(C(=O)/C=C/c2ccc(OC)c(CN3CCOCC3)c2)cc1,"inconclusive: 20.6 µM [activator, single point]",
Cc1cccc(-[n+]2c(-c3cccc(Br)c3)[nH]c3nc4ccccc4nc32)c1,"inconclusive: 29.1 µM [activator, single point]",
Cc1ccc(C)c(NC(=O)C2CC3c4ccccc4C2c2ccccc23)c1 (stereo unspecified),"inconclusive: 6.51 µM [activator, single point]",
CC(C)[C@H](NC(=O)NCc1cccs1)C(=O)O,"inconclusive: 0.0046 µM [activator, full curve, poor fit]",
CC(C)CCNC(=O)C1CCCN(S(=O)(=O)c2ccc3c(c2)CC(C)N3C(=O)C2CC2)C1 (stereo unspecified),"inconclusive: 20.6 µM [activator, single point]",
O=[N+]([O-])c1cccc(COc2ncnc3cc([N+](=O)[O-])ccc23)c1,inactive,
CCc1ccc(OCC(=O)Nc2cccc3nsnc23)cc1,inactive,
CCC[C@@H](CN1CCC[C@H]1CN1C(N)=NC[C@H]1CC(C)C)N1C[C@@H](Cc2ccccc2)N(CCc2ccc(Cl)c(Cl)c2)C1=N,"inconclusive: 5.8 µM [activator, full curve, poor fit]",
O=C(Nc1ccc(N2CCN(C(=O)c3cccs3)CC2)cc1)c1ccccc1Cl,active: 23.1 µM,
Cc1cc(C)c(OCCn2ccnc2)c(C)c1,inactive,
Cn1c(=O)n(C)c2cc(C(N)=O)ccc21,"inconclusive: 25.9 µM [activator, single point]",
O=c1[nH]cnc2c1ncn2[C@@H]1C[C@@H](O)[C@H](CO)O1,inactive,
CCOC(=O)CN(C(=O)c1snc(C(N)=O)c1N)C(C(=O)NCCC(C)C)c1ccc(F)cc1 (stereo unspecified),,inconclusive: 42.5% [activator]
COc1cc(NC(=S)NC(=O)C(C)C)ccc1NC(=O)c1cc2ccccc2o1,"inconclusive: 14.6 µM [activator, partial curve, poor fit]",
C/C=C(/C)C(=O)O[C@@H]1c2c(ccc3ccc(=O)oc23)OC(C)(C)[C@@H]1OC(=O)/C(C)=C\C,"inconclusive: 11.6 µM [activator, partial curve]",
COc1cccc(/C=N/NC(=O)CN2CC(c3ccccc3)CC2=O)c1O (stereo unspecified),active: 7.31 µM,
CCN(CC)c1ccc2cc(-c3nc4ccccc4[nH]3)c(=O)oc2c1,active: 5.17 µM,
Cc1cc(OCC(=O)OCC(=O)Nc2ccc(Cl)cn2)ccc1Cl,"inconclusive: 18.4 µM [activator, single point]",
Cc1ccc2cc(CN(CCN(C)C)C(=O)Nc3ccc(Cl)cc3)c(=O)[nH]c2c1,"inconclusive: 29.1 µM [activator, single point]",

SMILES,Potency,re-replication activation
O=C(Nc1cccc(-c2nnc(-c3ccccc3)o2)c1)c1ccc(Br)o1,"inconclusive: 0.146 µM [activator, full curve, poor fit]",
Cc1c(NC(=S)NC(=O)C(C)(C)C)c(=O)n(-c2ccccc2)n1C,"inconclusive: 6.51 µM [activator, single point]",
CC(=O)Cn1nnc(-c2ccc(C(F)(F)F)cc2)n1,"inconclusive: 0.0046 µM [activator, full curve, poor fit]",
Cc1ccnc(NC(=O)COc2c(C)cc(C)cc2[N+](=O)[O-])c1,"inconclusive: 0.731 µM [activator, partial curve, poor fit]",
O=C1C=C(c2ccc(C(=O)O)cc2)C[C@@H](c2ccc(Cl)cc2)C1,"inconclusive: 1.16 µM [activator, single point]",
NNC(=O)c1oc2nc(-c3ccccc3)cc(-c3ccccc3)c2c1N,"inconclusive: 20.6 µM [activator, single point]",
CCn1c(SCC(=O)Nc2oc(-c3ccccc3)c(-c3ccccc3)c2C#N)nnc1-c1ccncc1,inactive,
COc1ccc2cc(C#N)c(SCC(=O)Nc3nonc3C)nc2c1,"inconclusive: 20.6 µM [activator, single point]",
CC(C)(C)OC(=O)N1CCC(C(=O)Nc2cccc(C(=O)NCCc3ccccc3)c2)CC1,"inconclusive: 0.651 µM [activator, single point]",
O=C(COC(=O)c1cnc(Cl)c(Cl)c1)NCc1cccs1,"inconclusive: 16.4 µM [activator, partial curve, poor fit]",
COC(=O)C1=C2c3[nH]c4ccccc4c3CCN2C(=O)CC1,"inconclusive: 0.651 µM [activator, partial curve, poor fit]",
CCn1c(CCNC(=O)c2ccc(C)cc2)nnc1SCc1ccc(Cl)c(Cl)c1,inactive,
Cc1cc(C)cc(NC(=O)N2CCc3ccccc3C2)c1,inactive,
Cc1c(Cl)cccc1NC(=O)CSc1nccn1C,inactive,
Cc1cc(NC(=O)CSC2=NS(=O)(=O)c3ccccc3N2)no1,inactive,
O=C1C(=Cc2ccco2)CCCC1=Cc1ccco1,"inconclusive: 29.1 µM [activator, single point]",
O=Cc1[nH]c2ccccc2c1N(C(=O)CCl)c1ccccc1,inactive,
Cc1ccc(C)c(N(CC(=O)N2CCCC2)S(C)(=O)=O)c1,"inconclusive: 0.0052 µM [activator, full curve, poor fit]",
CC(C)NC(=O)CN(CCc1ccccc1)S(C)(=O)=O,"inconclusive: 29.1 µM [activator, single point]",
Nc1ncc(S(=O)(=O)c2ccc([N+](=O)[O-])cc2)s1,"inconclusive: 23.1 µM [activator, single point]",
Cc1csc(=Nc2cccnc2)n1CC1CCCCC1,"inconclusive: 25.9 µM [activator, partial curve, poor fit]",
COc1ccc(CN(C)CC(=O)Nc2ccc(Cl)cc2F)c(OC)c1,"inconclusive: 6.51 µM [activator, single point]",
Cc1ccc(S(=O)(=O)N2c3ccccc3-c3c(ssc3=S)C2(C)C)cc1,"inconclusive: 16.4 µM [activator, single point]",

# Some values from the entries so far:
# COc1ccc(CN(C)CC(=O)Nc2ccc(Cl)cc2F)c(OC)c1 | Potency: inconclusive: 6.51 µM [activator, single point]
# CC(C)NC(=O)CN(CCc1ccccc1)S(C)(=O)=O | Potency: inconclusive: 29.1 µM [activator, single point]
# O=Cc1[nH]c2ccccc2c1N(C(=O)CCl)c1ccccc1 | Potency: inactive
# Nc1ncc(S(=O)(=O)c2ccc([N+](=O)[O-])cc2)s1 | Potency: inconclusive: 23.1 µM [activator, single point]
# Cc1ccc(C)c(N(CC(=O)N2CCCC2)S(C)(=O)=O)c1 | Potency: inconclusive: 0.0052 µM [activator, full curve, poor fit]
# CC(C)(C)OC(=O)N1CCC(C(=O)Nc2cccc(C(=O)NCCc3ccccc3)c2)CC1 | Potency: inconclusive: 0.651 µM [activator, single point]
